No constants are given. Whether binding was seen depends on the method and setting. Tags and fused reporters may be left off the sequences shown.
Key:
[1] = target: Human KCTD15 BTB domain variant Asp104His (residues 52-165) (human) (UniProt Q96SI1); assay: native MS; samples at 1 mg/mL exchanged into 50 mM ammonium acetate pH 6.5; ESI Q-TOF, direct infusion; both purified
[2] = target: Human KCTD15 BTB domain variant Asp104His (residues 52-165) (human) (UniProt Q96SI1); assay: AUC; sedimentation velocity, 20°C, 40 000 rpm; proteins at 1 mg/mL in 50 mM HEPES pH 7.5, 300 mM NaCl, 0.5 mM TCEP; both purified
[3] = target: Human KCTD15 BTB domain variant Asp104His (residues 52-165) (human) (UniProt Q96SI1); assay: SEC-MALS; Superose 6 10/300 GL equilibrated with PBS, 0.5 mL/min; proteins prepared at 1 mg/mL in gel filtration buffer; both purified

Measured: binding

B1: Human KCTD15 BTB domain variant Asp104His (residues 52-165) (domain or fragment, UniProt Q96SI1-1 52-165)
chain: TKSNAPVHIDVGGHMYTSSLATLTKYPDSRISRLFNGTEPIVLDSLKQHYFIHRDGEIFRYVLSFLRTSKLLLPDDFKDFSLLYEEARYYQLQPMVRELERWQQEQEQRRRSRA
no binding (tested: 1 mg/mL): all assays above
